# Screening data, single-dose tests

From ChEMBL document CHEMBL3988442, “University of Dundee, Small-Polar-MMV Screening Library” (2021).

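Whole-cell growth test on Mycobacterium tuberculosis, read after 4 days in a medium based on cholesterol and the lipid DPPC; the read-out is not stated. Tested at 50 µM. The record gives no direction; compounds that gave an IC50 in retests scored well above the rest, so higher reads as more growth inhibition. Size under these conditions: about 69,000 compounds, about 370 of them at 50% or above in at least one test.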

Values are the deposited “Percent Effect”, in %.
How 0% and 100% were set is not recorded. Most values in the screen are low, and negative values occur.
Compounds were drawn at random from those tested, without regard to their results.
Two or more numbers in one place are separate tests of the same structure; such repeats can differ widely.

| SMILES | percent effect |
|---|---|
| `Cc1cc(C)nc(C2(C)CCCN2CCO)n1` (stereo not drawn) | -10.18% & -1.912% |
| `CCSc1cc(C(=O)N(CC(F)F)C(C)C)ccn1` | 9.297% |
| `Cn1c(Cn2ccnc2)nnc1C1CCN(C(=O)c2ccncc2)CC1` | 1.703% |
| `Cc1nnsc1CNC(=O)Nc1cccc(N2CCN(C)C2=O)c1` | 11.71% |
| `Cc1cc(C)n(Cc2cccc(C(=O)NCCSCC(C)(C)O)c2)n1` | 14.86% |
| `CN(CCc1ccccc1)Cc1cc(C(=O)N2CCCC2(C)C)no1` | -17.77% |
| `COc1ccc(-n2cc(CCO)cn2)cc1C(N)=O` | -17.29% |
| `NC(=O)C1CCN(C(=O)NCc2cccnc2OC2CCCC2)C1` (stereo not drawn) | -13.67% |
| `O=C(O)C(F)(F)F.O=C(O)C(F)(F)F.c1cncc(N2CCCC3(CCN(CCN4CCCC4)CC3)C2)c1` | -29.56% |
| `Cc1nnsc1C(=O)NCc1nn(C)c2c1COCC2` | -3.859% |
| `CC(C)c1noc(CS(=O)(=O)CC(=O)NCc2ccccc2)n1` | -21.43% & 3.749% |
| `COC(=O)[C@H](CC(C)C)NC(=O)c1snnc1-c1ccc(OC)cc1` | 10.47% |
| `Cc1cccc(N2CCC3(CCCN3Cc3cnn(C)c3C)CC2)n1` | -20.35% |
| `Cc1cc(-c2nn(C)c(Cl)c2CN2CCOC(C(=O)O)C2)no1` (stereo not drawn) | -75.88% |
| `COc1ccc(C(=O)C2CCCN(Cc3cc(C)n[nH]3)C2)c(OC)c1` (stereo not drawn) | 3.752% |
| `CCC[C@H]1CN(S(=O)(=O)N(C)Cc2ccccc2)C[C@@H]1N` | 17.36% |
| `O[C@@H]1CCN(c2ccc3c(Cl)ccnc3c2F)C1` | 12.91% |
| `Cc1cnn(C(C)C2CC2)c1NC(=O)c1ccncc1` (stereo not drawn) | -4.145% |
| `O=C(NC1CC1)N1CC[C@H](OCC2CC2)[C@@H]1Cc1cccnc1.O=C(O)C(F)(F)F` | 7.603% |
| `Cc1nccc(-c2cccc(NCC(=O)N3CCNC(=O)C3)c2)n1` | 0.2165% |
| `Cc1ccc(NCc2cnc3n2CCN(c2ncccn2)CC3)nn1` | 8.068% |
| `O=C(NCc1cc[nH]n1)NCC(O)c1ccc(F)cc1` (stereo not drawn) | -8.435% |
| `CC(C)NC(=O)c1ccc2nnc(C3CN(C)CCN3C)n2c1.O=C(O)C(F)(F)F.O=C(O)C(F)(F)F` (stereo not drawn) | -0.255% |
| `COCCN1CCC(NC(=O)NCC2(c3cccc(F)c3)CC2)C1` (stereo not drawn) | -4.563% & -5.554% |
| `CCSc1cc(C(=O)NCCNC(=O)Cc2ccccc2)ccn1` | -7.316% |
| `CN(Cc1cccc2ncccc12)C(=O)CCC(F)(F)F` | -11.29% |
| `Cn1cc(-c2noc(C3(C)CCOCC3)n2)cn1` | -40.45% |
| `Cc1cc(C(F)(F)F)nc(C2COCCN2S(C)(=O)=O)n1` (stereo not drawn) | -3.185% & -2.621% |
| `Cc1nn(C)c(Cl)c1C1CCCN1CC(=O)N1CCOCC1` (stereo not drawn) | 0.9344% |
| `O=C(NCC1(Sc2ccccc2)CC1)c1c[nH]nn1` | -23.57% |
| `CSc1cccc(CN2CCn3nc(CNC(C)=O)cc3C2)c1` | 28.25% |
| `NC(=O)c1c(NC(=O)C2CCCO2)sc2c1CCc1ccccc1-2` (stereo not drawn) | 19.1% |
| `CN(C)c1cc(C(=O)N2CCN(c3nccs3)CC2)ccn1` | -9.88% |
| `Cn1nccc1-c1ncc2c(c1C(=O)O)CCN(Cc1ccccc1)C2.O=C(O)C(F)(F)F.O=C(O)C(F)(F)F.O=C(O)C(F)(F)F` | -19.79% |
| `Cc1ccc(C#N)c(N2CCC(c3nccn3Cc3cscn3)CC2)n1` | 21.08% |
| `CCCc1csc(-c2ccc(S(C)(=O)=O)cc2)n1` | 6.268% |
| `COC(=O)c1ccc(NC(C)c2ccc3c(c2)CCC(=O)N3)nn1` (stereo not drawn) | -8.775% & 0.07776% |
| `COCC1CN(C(=O)Nc2cc(Cl)ccc2F)CCO1` (stereo not drawn) | -4.244% |
| `Cc1nc(CC(=O)N2CCc3nc(-c4cnccn4)nc(O)c3C2)cs1` | -18.72% |
| `Cl.Cl.Clc1cccc(C[C@@H]2NCCC[C@@H]2Nc2ccccc2)c1` | 105.7% |
| `N#Cc1ccc(CN2CCC(c3ccnn3CCO)CC2)cc1` | -2.415% |
| `Cn1cc(CN2CCC3(CCCN3S(C)(=O)=O)CC2)cn1` | -15.15% |
| `COc1ccc(N(C(=O)Cc2ccc(C)nc2)C(C)C)cc1F` | -23.59% |
| `NCC1Cc2cccc(-c3nccc(N4CCC(O)CC4)n3)c2O1` (stereo not drawn) | -3.957% |
| `CN(C)CCO[C@H]1C[C@@H](O)C12CCN(c1nccc3ccccc13)CC2` | 4.985% |
| `CC(C(=O)N1CCOCC1)N1CCc2cncnc2C1` (stereo not drawn) | -1.735% |
| `CCN1CCCC1CN(Cc1ccoc1)CC1CCN(CCOC)CC1` (stereo not drawn) | 0.07935% |
| `O=C(Cc1ccsc1)N1CCOC(c2nc(-c3ncccn3)no2)C1` (stereo not drawn) | 23.89% |
| `O=C(O)C(F)(F)F.O=C(O)C(F)(F)F.[H][C@@]12CN(CCOC)C[C@]1([H])[C@@H](OC)CCN2Cc1ccco1` | 5.11% |
| `CN(C)c1cc(CNC(=O)c2cccc(F)c2)ccn1` | -7.446% |
| `COc1cc(C(=O)N2CCCC(c3cc(C)[nH]n3)C2)cc(OC)c1C` (stereo not drawn) | -58.14% |
| `CN(CC(=O)N(C)C1CCN(CC2CCOC2)CC1)c1ccccc1` (stereo not drawn) | 20.66% |
| `Cc1nccc(C(=O)NC(COCC(C)C)c2ccco2)n1` (stereo not drawn) | -30.54% |
| `CCCc1nn(Cc2csc(C(C)C)n2)c(=O)o1` | 53.39% |
| `Cc1nonc1CNC(=O)C(C)Oc1ccccc1F` (stereo not drawn) | -9.888% & 13.07% |
| `Cc1nc(C)n(CC2CN(CCOc3cccc(C#N)c3)CCO2)n1` (stereo not drawn) | 9.747% |
| `Cc1cccnc1NCCNC(=O)[C@H]1CNC[C@@H](C(=O)N2CCCC2)C1` | 4.645% |
| `COc1cccc(CNC(=O)N2CCCC(Cn3cc(CN)nn3)C2)c1` (stereo not drawn) | 14.09% |
| `CCc1nccn1CCC(=O)N1CCCC1c1ccc(F)cc1` (stereo not drawn) | -20.01% & -22.61% |
| `O=C(C1CC=CC1)N1CCC2(CC1)CN(Cc1ccccn1)CCO2` | -0.2207% |
| `Cc1nc(-c2cccnc2)ncc1C(=O)N1CCCC(N(C)C)CC1` (stereo not drawn) | -25.75% |
| `Cn1cnc2c1C(COCC1CC1)CN(C(=O)c1cccs1)C2` (stereo not drawn) | -5.988% & -18.14% |
| `COc1ccc(-n2ccc(C(=O)NCCN3CCC(C)CC3)n2)cc1` | -4.306% |
| `Cc1ccc2[nH]c(C(=O)N3CCC4(CC3)C(=O)NCCN4C)nc2c1` | 31.03% |
| `CC(=O)N1CCC(c2c(CN(C)C)cnc3cc(C)nn23)CC1` | -30.22% & 0.8791% |
| `O=C(NCC(O)c1cccc(F)c1)c1cccnc1O` (stereo not drawn) | -13.66% |
| `CC(C)(C)C(=O)Nc1ccc(Oc2ccsc2C(=O)O)cc1` | 0.7535% |
| `COc1c(C)cnc(CN2CCCCC2Cn2nc(C)nc2C)c1C` (stereo not drawn) | -2.219% |
| `O=C(c1ccccc1O)N1CCN(C(=O)C2CCC2)CC1` | 3.016% |
| `CN(CC(=O)NCC(F)(F)F)C(=O)c1ccc(=O)[nH]c1` | 6.427% |
| `COCc1nccc(C2CCCN(Cc3ccc(C#N)cc3F)C2)n1` (stereo not drawn) | 1.303% |
| `Cc1cc(C(=O)NCC(C)C)c2c(C3CCCN3)noc2n1` (stereo not drawn) | 0.4978% |
| `CC(=O)Nc1nc(C(=O)NC(C)c2ccc(C#N)cc2)cs1` (stereo not drawn) | 20.68% |
| `Cc1nc(C2CCCN(C(=O)c3cc(C)sc3C)C2)no1` (stereo not drawn) | 5.33% |
| `N#Cc1ccc(NCCC2CCN(CC(F)(F)F)CC2)nc1` | 32.25% |
| `O=C(O)C(F)(F)F.[H][C@@]12CCN(c3ncccn3)[C@@]1([H])CCN2S(=O)(=O)c1cccc(C)c1` | -4.175% |
| `COCc1cnc2n1CCN(S(=O)(=O)c1c(C)nn(C)c1C)C2C` (stereo not drawn) | -17.63% |
| `Cc1cc(N(Cc2cccs2)C2CC2)n2nc(C(F)(F)F)nc2n1` | -8.304% |
| `CCn1cnnc1CNC(=O)N1CCC(O)CC1` | -4.442% |
| `CN(Cc1ccccc1)c1cnn(CC2CCCCO2)c(=O)c1` (stereo not drawn) | 13.99% |
| `CCC(=O)N1CCCC1c1nccnc1Nc1ncccn1` (stereo not drawn) | -6.114% |
| `Cc1cc2nc(C(C)C)cc(NCCc3ccncc3)n2n1` | -16.81% |
| `O=C1Nc2ccccc2CC12CCCN2Cc1ccc(C(F)(F)F)cc1` (stereo not drawn) | -6.923% |
| `O=C(O)C(F)(F)F.O=C(O)C(F)(F)F.O=C(O)C(F)(F)F.[H][C@@]12CO[C@H](CNc3ncccn3)[C@]1([H])CCN(Cc1ccccn1)C2` | -9.113% |
| `CC(=O)NCCn1ccc(-c2ccccn2)n1` | 0.9368% |
| `CCCn1cc(-c2ccnc(NC3CCCc4ccccc43)n2)c(C)n1` (stereo not drawn) | 1.355% |
| `CCC(C)N1C(=O)c2ccc(C(=O)NCCc3c[nH]cn3)cc2C1=O` (stereo not drawn) | -18.4% |
| `CCNC(=O)C(C)(C)NC(=O)NCc1cccc(Br)c1` | 7.764% |
| `Cc1nccc(C(=O)N2CCCN(Cc3cnn(C(C)C)c3)CC2)n1` | 43.52% & -17.14% |
| `CCN1CCCC(CN2CCn3nc(CNC(=O)N(C)C)cc3C2)C1` (stereo not drawn) | -1.096% & -3.229% |
| `CC1CCN(C(=O)c2ccnc(-n3cncn3)c2)c2ccccc21` (stereo not drawn) | 8.15% |

11 of the entries, repeated:

O=C(NCC(O)c1cccc(F)c1)c1cccnc1O (stereo not drawn) read -13.66%.
CC(=O)NCCn1ccc(-c2ccccn2)n1 read 0.9368%.
Cc1cc2nc(C(C)C)cc(NCCc3ccncc3)n2n1 read -16.81%.
CN(CCc1ccccc1)Cc1cc(C(=O)N2CCCC2(C)C)no1 read -17.77%.
Cc1nccc(C(=O)N2CCCN(Cc3cnn(C(C)C)c3)CC2)n1 read 43.52% & -17.14%.
CC(=O)N1CCC(c2c(CN(C)C)cnc3cc(C)nn23)CC1 read -30.22% & 0.8791%.
O=C(NCc1cc[nH]n1)NCC(O)c1ccc(F)cc1 (stereo not drawn) read -8.435%.
Cc1nc(C2CCCN(C(=O)c3cc(C)sc3C)C2)no1 (stereo not drawn) read 5.33%.
Cn1cc(-c2noc(C3(C)CCOCC3)n2)cn1 read -40.45%.
N#Cc1ccc(CN2CCC(c3ccnn3CCO)CC2)cc1 read -2.415%.
CC(C)c1noc(CS(=O)(=O)CC(=O)NCc2ccccc2)n1 read -21.43% & 3.749%.